Source: PubChem BioAssay AID720505 (Drosophila RNAi Screening Center, 2013)

- Purpose: 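Fly regulators or components of the CRAC channel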 (primary screen)
- System: Drosophila S2R+ cells
- Knock-down reagent: long dsRNA against Drosophila genes
- Challenge: thapsigargin (2 µM) in calcium-free buffer to empty internal stores, then 2 mM calcium added back
- Measurement: 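Fluo-4 signal in 384-well plates read on a FLIPR after thapsigargin (2 µM, calcium-free) store depletion and 2 mM calcium add-back; unnormalised mean endpoint per well; screen run twice, selected wells retested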
- Scale: calcium signal and retest calcium signal: higher = more calcium entry after store depletion
- Call rule: 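Knock-downs counted as hits when calcium entry dropped relative to STIM1 positive and Rho1 negative controls present on each plate; roughly 1500 genes called, with reductions of differing size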
- Meaning of the calls: active = called as lowering calcium entry; inactive = not called
The deposit covers about 20,000 reagents; shown is an unselected part of those that have a named target and a result. In the full data, about 2,100 (10%) were called active. 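Raw plate signals without normalisation; calls rest on control-based scores that were not deposited; replicate 2 separates called from uncalled poorly.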 The numbers tell different reagents against one gene apart. A plus sign joins genes that one reagent is predicted to hit. Not given: the amount of reagent, the time to read-out.

| predicted target | reagent | calcium signal, replicate 1 | calcium signal, replicate 2 | retest calcium signal, replicate 1 | retest calcium signal, replicate 2 | Outcome |
| --- | --- | --- | --- | --- | --- | --- |
| DIP-delta | 1 | 112 | 78.8 | – | – | inactive |
| DIP-delta | 2 | 109 | 76 | – | – | inactive |
| RhoGAP102A | 1 | 136 | 158 | – | – | inactive |
| qless | 1 | 140 | 129 | – | – | inactive |
| qless | 2 | 149 | 131 | – | – | inactive |
| CG14511 | 1 | 112 | 114 | – | – | inactive |
| t-Grip91 | 1 | 145 | 85.6 | – | – | inactive |
| CG8138 | 1 | 123 | 135 | – | – | inactive |
| CG3558 | 1 | 105 | 271 | – | – | inactive |
| UQCR-14 | 1 | 99.8 | 128 | – | – | inactive |
| CR31054 | 1 | 97.6 | 172 | – | – | inactive |
| Men | 1 | – | – | – | – | active |
| Men | 2 | 184 | 76.5 | 10685 | 164 | inactive |
| Men | 3 | 69.8 | 149 | – | – | inactive |
| Mesh1 | 1 | 122 | 104 | – | – | inactive |
| CG17574 | 1 | 136 | 207 | 141 | 124 | inactive |
| CG4477 | 1 | 81.5 | 86.8 | – | – | inactive |
| CG4497 | 1 | 97.6 | 132 | – | – | inactive |
| CG4520 | 1 | 128 | 119 | – | – | inactive |
| Muc11A | 1 | 105 | 93.5 | 8945 | 109 | inactive |
| CG3251 | 1 | 131 | 94.5 | – | – | inactive |
| Rrp45 | 1 | 98.1 | 86.2 | – | – | inactive |
| CG32344 | 1 | 165 | 102 | – | – | inactive |
| kcc | 1 | 117 | 84.8 | – | – | inactive |
| kcc | 2 | 143 | 242 | – | – | inactive |
| CG15473 | 1 | 227 | 141 | – | – | inactive |
| Spn42Db | 1 | 87.3 | 111 | – | – | inactive |
| Pgant8 | 1 | 108 | 158 | – | – | inactive |
| CG3587 | 1 | 87.6 | 85.1 | 74.7 | 72.5 | inactive |
| CG3587 | 2 | 78.2 | 244 | – | – | inactive |
| CG17826 | 1 | 112 | 76.8 | – | – | inactive |
| CG12885 | 1 | 108 | 100 | – | – | inactive |
| CG33322 | 1 | 179 | 80.4 | – | – | inactive |
| CG15385 | 1 | 127 | 162 | – | – | inactive |
| CG9922 | 1 | 114 | 151 | – | – | inactive |
| RpL17 | 1 | 121 | 88.4 | – | – | inactive |
| Tti1 | 1 | 160 | 111 | – | – | inactive |
| Cyp28a5 | 1 | 73.1 | 135 | – | – | inactive |
| CG31659 | 1 | 185 | 133 | – | – | inactive |
| ARY (retired record) | 1 | 79.8 | 14966 | – | – | inactive |
| CG9643 | 1 | 114 | 92.1 | – | – | inactive |
| CG10467 | 1 | 100 | 52.2 | – | – | inactive |
| Reg-5 | 1 | 171 | 85.7 | – | – | inactive |
| Actn3 | 1 | 115 | 108 | – | – | inactive |
| CG34327 | 1 | 60.3 | 121 | – | – | active |
| CG34327 | 2 | 82.1 | 208 | – | – | inactive |
| Skp2 + CG14645 | 1 | 99 | 135 | – | – | inactive |
| Aasdh | 1 | 173 | 129 | – | – | inactive |
| RhoBTB | 1 | 127 | 120 | – | – | inactive |
| CG11771 | 1 | 225 | 237 | – | – | inactive |
| Utx | 1 | 205 | 136 | – | – | inactive |
| CG14731 | 1 | 154 | 87.2 | – | – | inactive |
| Sgs3 | 1 | 118 | 101 | – | – | inactive |
| Rpn6 | 1 | 77.8 | 103 | – | – | active |
| NUCB1 | 1 | 96.8 | 183 | – | – | inactive |
| dj | 1 | 128 | 246 | – | – | inactive |
| CG13436 | 1 | 77 | 89 | – | – | inactive |
| CG30283 | 1 | 138 | 129 | – | – | inactive |
| CG30467 | 1 | 111 | 175 | – | – | inactive |
| Cln3 | 1 | 136 | 180 | – | – | inactive |
| Meltrin | 1 | 130 | 145 | – | – | inactive |
| Meltrin | 2 | 190 | 112 | – | – | inactive |
| CG13198 | 1 | 98.1 | 164 | – | – | inactive |
| CG15386 + CG42371 | 1 | 122 | 175 | – | – | inactive |
| arx | 1 | 134 | 83.9 | – | – | inactive |
| Fign | 1 | 124 | 186 | – | – | inactive |
| Pten | 1 | 108 | 108 | – | – | inactive |
| CG4194 | 1 | 138 | 154 | – | – | inactive |
| CG9775 | 1 | 30.8 | 95.7 | – | – | active |
| CG9775 | 2 | 105 | 101 | – | – | inactive |
| CG7084 | 1 | 173 | 187 | – | – | inactive |
| mthl5 | 1 | 186 | 98.7 | – | – | inactive |
| CG3119 | 1 | 177 | 94.1 | – | – | inactive |
| aralar1 | 1 | – | – | – | – | inactive |
| aralar1 | 2 | 113 | 136 | – | – | inactive |
| CG2113 | 1 | 88 | 82.7 | – | – | inactive |
| Klp54D | 1 | 206 | 134 | – | – | inactive |
| CG33263 | 1 | 89.6 | 78 | – | – | inactive |
| fs(1)h | 1 | 68.9 | 108 | 96.7 | 124 | inactive |
| m | 1 | 123 | 109 | – | – | inactive |
| CG6195 | 1 | 245 | 201 | – | – | inactive |
| AANATL3 | 1 | 84.5 | 127 | – | – | inactive |
| Grip128 | 1 | 128 | 119 | – | – | inactive |

No new results follow: an excerpt of the list.
| predicted target | reagent | calcium signal, replicate 1 | calcium signal, replicate 2 | retest calcium signal, replicate 1 | retest calcium signal, replicate 2 | Outcome |
| --- | --- | --- | --- | --- | --- | --- |
| Klp54D | 1 | 206 | 134 | – | – | inactive |
| CG33263 | 1 | 89.6 | 78 | – | – | inactive |
| fs(1)h | 1 | 68.9 | 108 | 96.7 | 124 | inactive |
| m | 1 | 123 | 109 | – | – | inactive |
